## Results of single-concentration screens

The values are deposited in ChEMBL (CHEMBL3988442, “University of Dundee, Small-Polar-MMV Screening Library” (2021)).

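Assay of Toxoplasma gondii numbers, read through their beta-galactosidase reporter with a colour substrate. Concentration: 50 µM. Higher reads as fewer parasites (inferred from which compounds were picked for retests). Size under these conditions: about 18,000 compounds, about 170 of them at 50% or above in at least one test.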

Results are given as percent effect. How 0% and 100% were set is not recorded. Most values in the screen are low, and negative values occur. This is an unselected part of the compounds tested.

Compound,effect
Cc1cccc2nc(CN3CCOCC3)cn12,-4.676
CC1(NC(=O)C2CCC2)CCS(=O)(=O)C1 (stereo unspecified),0.5488
COC(C)CCNC(=O)[C@@H](O)c1ccccc1 (stereo partly specified),-3.888
NC(=O)c1cc(S(=O)(=O)NCCc2ccccc2)cs1,0.8246
CCSc1nc2ccccc2c(=O)n1CCCO,-21.69
O=C(NCCc1nc(C2CC2)no1)c1cnco1,-3.701
Cc1cc(C(=O)Nc2ccc3c(c2)CCCN3)on1,30.63
COC(=O)c1cccc(F)c1,-1.948
O=C(c1cccc2cc[nH]c12)N1CCSCC1,5.189
CCC(O)(CN)c1ccc(Cl)cc1 (stereo unspecified),-5.18
Cn1ccnc1CN1CCN(Cc2ccccn2)CC1,7.712
Cc1ccc(N2C=NS(=O)(=O)c3cccnc32)cc1C,14.82
Cc1cc(=O)n2nccc2[nH]1,-5.102
Cc1cnccc1CNC(=O)CSCCN1CCCC1,-5.224
Cn1nc(-c2nc(C(C)(C)C)no2)ccc1=O,3.371
COc1ccc(CN2CCCCC2C)cn1 (stereo unspecified),-2.471
CCCSCCNC1CCNCC1,15.62
NCCc1nnc(N)s1,0.6783
Cc1cnc(C(=O)N=c2sccn2C)cn1,2.292
CCC1CN(Cc2ccnc(N)c2)CCO1 (stereo unspecified),-3.956

The first 2 entries again:

{"compound": "Cc1cccc2nc(CN3CCOCC3)cn12", "effect": -4.676}
{"compound": "CC1(NC(=O)C2CCC2)CCS(=O)(=O)C1", "stereo": "stereo unspecified", "effect": 0.5488}